Assay results taken from the supplement of paper PMC4604168 (melanoma cell lines).
The list shows a part of the results. Single values are uncertain, as repeats are few or missing.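 Cells were imaged in 1,536-well plates, and nuclei stained with an antibody against cleaved PARP were counted against all DNA-stained nuclei to give the apoptosis fraction. Screening doses were chosen to leave most cells alive, and resting and induced cleaved-PARP levels differ strongly between cell lines.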

Assays:
Assay in all cases: cleaved PARP positive nuclei fraction relative to DMSO control; melanoma cells; higher = more apoptosis
Conditions in all cases: library dose: low library concentration; 72 h
501Mel = system: 501Mel
A101D = system: A101D
A2058 = system: A2058
A375 = system: A375
C32 = system: C32
CBRC013 = system: CBRC013 (line from a melanoma biopsy)
CBRC014 = system: CBRC014 (line from a melanoma biopsy)
CBRC016 = system: CBRC016 (line from a melanoma biopsy)
CBRC017 = system: CBRC017 (line from a melanoma biopsy)
CBRC034 = system: CBRC034 (line from a melanoma biopsy)
COLO792 = system: COLO792
COLO800 = system: COLO800
COLO829 = system: COLO829
G361 = system: G361
IPC-298 = system: IPC-298
IST-MEL1 = system: IST-MEL1
LB2518-MEL = system: LB2518-MEL
LOXIMVI = system: LOXIMVI

## CC(C)(C)c1cnc(CSc2cnc(NC(=O)C3CCNCC3)s2)o1 + O=c1cc(-c2cccc3c2Sc2ccccc2S3)oc(N2CCOCC2)c1 [KU55933] (first compound 0.01 µM, partner dose 1 µM)
501Mel
  cleaved PARP positive nuclei fraction: 78.4%
A101D
  cleaved PARP positive nuclei fraction: 54.9%
A2058
  cleaved PARP positive nuclei fraction: 26%
A375
  cleaved PARP positive nuclei fraction: 37.6%
C32
  cleaved PARP positive nuclei fraction: 92.9%
CBRC013
  cleaved PARP positive nuclei fraction: 46.8%
CBRC014
  cleaved PARP positive nuclei fraction: 101%
CBRC016
  cleaved PARP positive nuclei fraction: 58.7%
CBRC017
  cleaved PARP positive nuclei fraction: 88.8%
CBRC034
  cleaved PARP positive nuclei fraction: 104%
COLO792
  cleaved PARP positive nuclei fraction: 175%
COLO800
  cleaved PARP positive nuclei fraction: 68.4%
COLO829
  cleaved PARP positive nuclei fraction: 107%
G361
  cleaved PARP positive nuclei fraction: 33.7%
IPC-298
  cleaved PARP positive nuclei fraction: 262%
IST-MEL1
  cleaved PARP positive nuclei fraction: 46.1%
LB2518-MEL
  cleaved PARP positive nuclei fraction: 321%
LOXIMVI
  cleaved PARP positive nuclei fraction: 69.2%

## CC(C)(C)c1cnc(CSc2cnc(NC(=O)C3CCNCC3)s2)o1 + O=C1NC(=O)/C(=C/c2ccc(-c3ccc(F)cc3O)o2)S1 [AS252424] (first compound 0.01 µM, partner dose 1 µM)
501Mel
  cleaved PARP positive nuclei fraction: 40.7%
A101D
  cleaved PARP positive nuclei fraction: 146%
A2058
  cleaved PARP positive nuclei fraction: 64.2%
A375
  cleaved PARP positive nuclei fraction: 113%
C32
  cleaved PARP positive nuclei fraction: 177%
CBRC013
  cleaved PARP positive nuclei fraction: 102%
CBRC014
  cleaved PARP positive nuclei fraction: 84.5%
CBRC016
  cleaved PARP positive nuclei fraction: 55.6%
CBRC017
  cleaved PARP positive nuclei fraction: 74.6%
CBRC034
  cleaved PARP positive nuclei fraction: 51.8%
COLO792
  cleaved PARP positive nuclei fraction: 133%
COLO800
  cleaved PARP positive nuclei fraction: 77.1%
COLO829
  cleaved PARP positive nuclei fraction: 145%
G361
  cleaved PARP positive nuclei fraction: 201%
IPC-298
  cleaved PARP positive nuclei fraction: 107%
IST-MEL1
  cleaved PARP positive nuclei fraction: 55.5%
LB2518-MEL
  cleaved PARP positive nuclei fraction: 89%
LOXIMVI
  cleaved PARP positive nuclei fraction: 71.5%

## CC(C)(C)c1cnc(CSc2cnc(NC(=O)C3CCNCC3)s2)o1 + COC(=O)c1sccc1S(=O)(=O)Nc1ccc(Nc2ccccc2)cc1OC [GSK0660] (first compound 0.01 µM, partner dose 1 µM)
501Mel
  cleaved PARP positive nuclei fraction: 49.4%
A101D
  cleaved PARP positive nuclei fraction: 158%
A2058
  cleaved PARP positive nuclei fraction: 154%
A375
  cleaved PARP positive nuclei fraction: 112%
C32
  cleaved PARP positive nuclei fraction: 160%
CBRC013
  cleaved PARP positive nuclei fraction: 99.4%
CBRC014
  cleaved PARP positive nuclei fraction: 110%
CBRC016
  cleaved PARP positive nuclei fraction: 35.5%
CBRC017
  cleaved PARP positive nuclei fraction: 90.3%
CBRC034
  cleaved PARP positive nuclei fraction: 151%
COLO792
  cleaved PARP positive nuclei fraction: 55.8%
COLO800
  cleaved PARP positive nuclei fraction: 80.7%
COLO829
  cleaved PARP positive nuclei fraction: 107%
G361
  cleaved PARP positive nuclei fraction: 247%
IPC-298
  cleaved PARP positive nuclei fraction: 39%
IST-MEL1
  cleaved PARP positive nuclei fraction: 43.1%
LB2518-MEL
  cleaved PARP positive nuclei fraction: 45.5%
LOXIMVI
  cleaved PARP positive nuclei fraction: 69.3%

## Cc1cc(N2CCOCC2)cc2[nH]c(-c3c(NC[C@@H](O)c4cccc(Cl)c4)cc[nH]c3=O)nc12 + O=S(=O)(c1ccccc1)N(CC(F)(F)F)c1ccc(C(O)(C(F)(F)F)C(F)(F)F)cc1 [T0901317] (first compound 0.2 µM, partner dose 1.4 µM)
501Mel
  cleaved PARP positive nuclei fraction: 80.6%
A101D
  cleaved PARP positive nuclei fraction: 126%
A2058
  cleaved PARP positive nuclei fraction: 81.7%
A375
  cleaved PARP positive nuclei fraction: 154%
C32
  cleaved PARP positive nuclei fraction: 68.1%
CBRC013
  cleaved PARP positive nuclei fraction: 163%
CBRC014
  cleaved PARP positive nuclei fraction: 120%
CBRC016
  cleaved PARP positive nuclei fraction: 94.9%
CBRC017
  cleaved PARP positive nuclei fraction: 77.5%
CBRC034
  cleaved PARP positive nuclei fraction: 188%
COLO792
  cleaved PARP positive nuclei fraction: 115%
COLO800
  cleaved PARP positive nuclei fraction: 221%
COLO829
  cleaved PARP positive nuclei fraction: 55.6%
G361
  cleaved PARP positive nuclei fraction: 59.1%
IPC-298
  cleaved PARP positive nuclei fraction: 90.2%
IST-MEL1
  cleaved PARP positive nuclei fraction: 135%
LB2518-MEL
  cleaved PARP positive nuclei fraction: 81.3%
LOXIMVI
  cleaved PARP positive nuclei fraction: 661%

## Cc1cc(N2CCOCC2)cc2[nH]c(-c3c(NC[C@@H](O)c4cccc(Cl)c4)cc[nH]c3=O)nc12 + COC(=O)c1sccc1S(=O)(=O)Nc1ccc(Nc2ccccc2)cc1OC [GSK0660] (first compound 0.2 µM, partner dose 1 µM)
501Mel
  cleaved PARP positive nuclei fraction: 78.1%
A101D
  cleaved PARP positive nuclei fraction: 145%
A2058
  cleaved PARP positive nuclei fraction: 185%
A375
  cleaved PARP positive nuclei fraction: 142%
C32
  cleaved PARP positive nuclei fraction: 57.2%
CBRC013
  cleaved PARP positive nuclei fraction: 122%
CBRC014
  cleaved PARP positive nuclei fraction: 113%
CBRC016
  cleaved PARP positive nuclei fraction: 58.6%
CBRC017
  cleaved PARP positive nuclei fraction: 99%
CBRC034
  cleaved PARP positive nuclei fraction: 48.4%
COLO792
  cleaved PARP positive nuclei fraction: 238%
COLO800
  cleaved PARP positive nuclei fraction: 46.5%
COLO829
  cleaved PARP positive nuclei fraction: 109%
G361
  cleaved PARP positive nuclei fraction: 161%
IPC-298
  cleaved PARP positive nuclei fraction: 91.6%
IST-MEL1
  cleaved PARP positive nuclei fraction: 147%
LB2518-MEL
  cleaved PARP positive nuclei fraction: 76%
LOXIMVI
  cleaved PARP positive nuclei fraction: 101%

## CC(C)(C)c1cnc(CSc2cnc(NC(=O)C3CCNCC3)s2)o1 + COc1ccc(-c2ccc3c(N4CCOCC4)nc(N4C[C@@H](C)O[C@@H](C)C4)nc3n2)cc1CO [KU0063794] (first compound 0.01 µM, partner dose 0.02 µM)
501Mel
  cleaved PARP positive nuclei fraction: 94.8%
A101D
  cleaved PARP positive nuclei fraction: 165%
A2058
  cleaved PARP positive nuclei fraction: 77%
A375
  cleaved PARP positive nuclei fraction: 296%
C32
  cleaved PARP positive nuclei fraction: 105%
CBRC013
  cleaved PARP positive nuclei fraction: 118%
CBRC014
  cleaved PARP positive nuclei fraction: 82.4%
CBRC016
  cleaved PARP positive nuclei fraction: 65.3%
CBRC017
  cleaved PARP positive nuclei fraction: 75.3%
CBRC034
  cleaved PARP positive nuclei fraction: 183%
COLO792
  cleaved PARP positive nuclei fraction: 144%
COLO800
  cleaved PARP positive nuclei fraction: 138%
COLO829
  cleaved PARP positive nuclei fraction: 123%
G361
  cleaved PARP positive nuclei fraction: 190%
IPC-298
  cleaved PARP positive nuclei fraction: 27.9%
IST-MEL1
  cleaved PARP positive nuclei fraction: 62.1%
LB2518-MEL
  cleaved PARP positive nuclei fraction: 77.6%
LOXIMVI
  cleaved PARP positive nuclei fraction: 89.9%

## O=C(Nc1cccc(Cl)c1)Nc1ncc(CCNc2ncnc3ccsc23)s1 + Cc1cc([N+](=O)[O-])ccc1NS(=O)(=O)c1cc(Cl)ccc1Cl [FH535] (first compound 0.0008 µM, partner dose 1 µM)
501Mel
  cleaved PARP positive nuclei fraction: 123%
A101D
  cleaved PARP positive nuclei fraction: 325%
A2058
  cleaved PARP positive nuclei fraction: 290%
A375
  cleaved PARP positive nuclei fraction: 48.8%
C32
  cleaved PARP positive nuclei fraction: 68.2%
CBRC013
  cleaved PARP positive nuclei fraction: 224%
CBRC014
  cleaved PARP positive nuclei fraction: 150%
CBRC016
  cleaved PARP positive nuclei fraction: 2610%
CBRC017
  cleaved PARP positive nuclei fraction: 233%
CBRC034
  cleaved PARP positive nuclei fraction: 196%
COLO792
  cleaved PARP positive nuclei fraction: 131%
COLO800
  cleaved PARP positive nuclei fraction: 127%
COLO829
  cleaved PARP positive nuclei fraction: 184%
G361
  cleaved PARP positive nuclei fraction: 135%
IPC-298
  cleaved PARP positive nuclei fraction: 122%
IST-MEL1
  cleaved PARP positive nuclei fraction: 206%
LB2518-MEL
  cleaved PARP positive nuclei fraction: 151%
LOXIMVI
  cleaved PARP positive nuclei fraction: 70.4%

## CC1(C)NC(=O)N(c2ccc([N+](=O)[O-])c(C(F)(F)F)c2)C1=O [nilutamide] + Oc1nc(-c2ccc(C(F)(F)F)cc2)nc2c1CSCC2 [XAV939] (first compound 1 µM, partner dose 2 µM)
501Mel
  cleaved PARP positive nuclei fraction: 178%
A101D
  cleaved PARP positive nuclei fraction: 109%
A2058
  cleaved PARP positive nuclei fraction: 63.2%
A375
  cleaved PARP positive nuclei fraction: 112%
C32
  cleaved PARP positive nuclei fraction: 30.9%
CBRC013
  cleaved PARP positive nuclei fraction: 103%
CBRC014
  cleaved PARP positive nuclei fraction: 104%
CBRC016
  cleaved PARP positive nuclei fraction: 35.2%
CBRC017
  cleaved PARP positive nuclei fraction: 78.5%
CBRC034
  cleaved PARP positive nuclei fraction: 124%
COLO792
  cleaved PARP positive nuclei fraction: 286%
COLO800
  cleaved PARP positive nuclei fraction: 53.9%
COLO829
  cleaved PARP positive nuclei fraction: 81.6%
G361
  cleaved PARP positive nuclei fraction: 130%
IPC-298
  cleaved PARP positive nuclei fraction: 67.5%
IST-MEL1
  cleaved PARP positive nuclei fraction: 174%
LB2518-MEL
  cleaved PARP positive nuclei fraction: 177%
LOXIMVI
  cleaved PARP positive nuclei fraction: 65.9%

## Cc1ccc(NC(=O)c2cccc(N(C)C)c2)cc1NC(=O)c1ccc(O)cc1 + c1cc(-c2cnn3cc(-c4ccc(OCCN5CCCCC5)cc4)cnc23)ccn1 [Dorsomorphin] (first compound 2 µM, partner dose 0.4 µM)
501Mel
  cleaved PARP positive nuclei fraction: 112%
A101D
  cleaved PARP positive nuclei fraction: 190%
A2058
  cleaved PARP positive nuclei fraction: 87.5%
A375
  cleaved PARP positive nuclei fraction: 185%
C32
  cleaved PARP positive nuclei fraction: 42.1%
CBRC013
  cleaved PARP positive nuclei fraction: 24.1%
CBRC014
  cleaved PARP positive nuclei fraction: 128%
CBRC016
  cleaved PARP positive nuclei fraction: 154%
CBRC017
  cleaved PARP positive nuclei fraction: 43.2%
CBRC034
  cleaved PARP positive nuclei fraction: 87.3%
COLO792
  cleaved PARP positive nuclei fraction: 107%
COLO800
  cleaved PARP positive nuclei fraction: 44.5%
COLO829
  cleaved PARP positive nuclei fraction: 120%
G361
  cleaved PARP positive nuclei fraction: 178%
IPC-298
  cleaved PARP positive nuclei fraction: 133%
IST-MEL1
  cleaved PARP positive nuclei fraction: 36.3%
LB2518-MEL
  cleaved PARP positive nuclei fraction: 87.9%
LOXIMVI
  cleaved PARP positive nuclei fraction: 61.3%
